According to paper PMC11989569:
Results are given in words; binding and its absence hold for the method and conditions named. In cells and extracts the contact can be indirect. Some entries that bind do so weakly or less than the wild type.

Protein sequences, listed by entry. Tags and fused reporters are not part of them. Lines headed by an entry give the natural chain unless they say otherwise; changes in a name come on top.
UniProt Q5S007: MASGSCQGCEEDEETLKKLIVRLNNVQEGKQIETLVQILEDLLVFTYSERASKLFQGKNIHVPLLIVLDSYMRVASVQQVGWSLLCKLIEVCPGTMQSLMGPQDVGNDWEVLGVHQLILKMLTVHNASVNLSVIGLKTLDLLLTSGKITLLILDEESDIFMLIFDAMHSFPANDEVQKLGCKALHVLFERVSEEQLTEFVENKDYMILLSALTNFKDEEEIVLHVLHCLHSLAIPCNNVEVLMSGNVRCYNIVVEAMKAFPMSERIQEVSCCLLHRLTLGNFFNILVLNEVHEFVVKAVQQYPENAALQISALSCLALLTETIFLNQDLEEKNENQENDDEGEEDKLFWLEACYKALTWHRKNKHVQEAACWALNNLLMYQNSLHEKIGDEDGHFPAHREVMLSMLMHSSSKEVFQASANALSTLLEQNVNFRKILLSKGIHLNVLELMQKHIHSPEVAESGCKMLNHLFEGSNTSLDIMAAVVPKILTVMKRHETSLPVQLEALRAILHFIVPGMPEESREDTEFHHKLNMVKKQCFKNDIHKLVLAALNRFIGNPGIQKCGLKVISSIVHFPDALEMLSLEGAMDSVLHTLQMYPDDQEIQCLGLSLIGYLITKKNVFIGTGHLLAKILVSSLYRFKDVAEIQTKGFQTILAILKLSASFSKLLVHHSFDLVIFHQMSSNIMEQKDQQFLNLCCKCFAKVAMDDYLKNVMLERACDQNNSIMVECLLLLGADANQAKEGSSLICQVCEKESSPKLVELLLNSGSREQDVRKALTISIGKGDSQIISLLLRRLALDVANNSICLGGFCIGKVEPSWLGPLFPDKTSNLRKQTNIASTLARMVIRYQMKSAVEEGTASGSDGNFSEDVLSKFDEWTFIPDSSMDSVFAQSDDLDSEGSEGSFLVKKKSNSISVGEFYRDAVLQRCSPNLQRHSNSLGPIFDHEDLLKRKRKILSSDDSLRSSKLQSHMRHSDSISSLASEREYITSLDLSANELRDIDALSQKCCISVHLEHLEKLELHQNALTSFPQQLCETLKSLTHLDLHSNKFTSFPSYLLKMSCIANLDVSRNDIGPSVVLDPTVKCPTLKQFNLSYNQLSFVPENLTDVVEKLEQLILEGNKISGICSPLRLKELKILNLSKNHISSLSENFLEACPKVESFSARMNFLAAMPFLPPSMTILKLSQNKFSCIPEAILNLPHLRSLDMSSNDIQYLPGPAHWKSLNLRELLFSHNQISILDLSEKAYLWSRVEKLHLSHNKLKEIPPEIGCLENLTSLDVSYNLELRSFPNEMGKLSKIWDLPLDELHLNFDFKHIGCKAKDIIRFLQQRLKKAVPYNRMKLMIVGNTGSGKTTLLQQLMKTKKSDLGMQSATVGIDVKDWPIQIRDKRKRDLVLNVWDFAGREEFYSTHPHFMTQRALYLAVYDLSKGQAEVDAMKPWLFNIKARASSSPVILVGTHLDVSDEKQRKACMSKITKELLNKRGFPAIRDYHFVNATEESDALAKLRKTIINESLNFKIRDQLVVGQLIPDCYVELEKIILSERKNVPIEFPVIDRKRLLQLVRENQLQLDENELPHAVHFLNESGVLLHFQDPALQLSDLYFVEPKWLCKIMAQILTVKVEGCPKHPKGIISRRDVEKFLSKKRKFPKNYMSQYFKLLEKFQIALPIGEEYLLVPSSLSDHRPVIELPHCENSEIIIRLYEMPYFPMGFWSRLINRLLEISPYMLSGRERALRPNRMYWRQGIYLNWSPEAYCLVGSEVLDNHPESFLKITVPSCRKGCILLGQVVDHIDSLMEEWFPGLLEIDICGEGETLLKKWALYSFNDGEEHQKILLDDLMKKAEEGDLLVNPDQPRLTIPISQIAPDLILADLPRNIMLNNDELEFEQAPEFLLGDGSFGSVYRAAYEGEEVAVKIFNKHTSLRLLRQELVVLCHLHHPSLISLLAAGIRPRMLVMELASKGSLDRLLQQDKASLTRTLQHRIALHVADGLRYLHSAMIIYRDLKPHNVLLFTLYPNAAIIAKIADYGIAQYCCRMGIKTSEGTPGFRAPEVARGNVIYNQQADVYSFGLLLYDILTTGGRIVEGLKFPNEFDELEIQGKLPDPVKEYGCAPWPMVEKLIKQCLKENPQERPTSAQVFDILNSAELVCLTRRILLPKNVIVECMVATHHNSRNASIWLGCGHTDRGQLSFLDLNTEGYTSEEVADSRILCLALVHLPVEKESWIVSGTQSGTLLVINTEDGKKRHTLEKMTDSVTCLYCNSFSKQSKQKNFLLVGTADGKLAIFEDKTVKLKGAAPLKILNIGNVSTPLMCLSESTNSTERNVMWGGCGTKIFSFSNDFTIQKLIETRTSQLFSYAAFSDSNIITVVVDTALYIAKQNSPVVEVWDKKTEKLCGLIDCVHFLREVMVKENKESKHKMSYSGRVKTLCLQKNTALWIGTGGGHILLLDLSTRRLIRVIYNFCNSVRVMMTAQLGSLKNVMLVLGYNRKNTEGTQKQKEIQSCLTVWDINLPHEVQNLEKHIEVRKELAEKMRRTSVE
UniProt P27732: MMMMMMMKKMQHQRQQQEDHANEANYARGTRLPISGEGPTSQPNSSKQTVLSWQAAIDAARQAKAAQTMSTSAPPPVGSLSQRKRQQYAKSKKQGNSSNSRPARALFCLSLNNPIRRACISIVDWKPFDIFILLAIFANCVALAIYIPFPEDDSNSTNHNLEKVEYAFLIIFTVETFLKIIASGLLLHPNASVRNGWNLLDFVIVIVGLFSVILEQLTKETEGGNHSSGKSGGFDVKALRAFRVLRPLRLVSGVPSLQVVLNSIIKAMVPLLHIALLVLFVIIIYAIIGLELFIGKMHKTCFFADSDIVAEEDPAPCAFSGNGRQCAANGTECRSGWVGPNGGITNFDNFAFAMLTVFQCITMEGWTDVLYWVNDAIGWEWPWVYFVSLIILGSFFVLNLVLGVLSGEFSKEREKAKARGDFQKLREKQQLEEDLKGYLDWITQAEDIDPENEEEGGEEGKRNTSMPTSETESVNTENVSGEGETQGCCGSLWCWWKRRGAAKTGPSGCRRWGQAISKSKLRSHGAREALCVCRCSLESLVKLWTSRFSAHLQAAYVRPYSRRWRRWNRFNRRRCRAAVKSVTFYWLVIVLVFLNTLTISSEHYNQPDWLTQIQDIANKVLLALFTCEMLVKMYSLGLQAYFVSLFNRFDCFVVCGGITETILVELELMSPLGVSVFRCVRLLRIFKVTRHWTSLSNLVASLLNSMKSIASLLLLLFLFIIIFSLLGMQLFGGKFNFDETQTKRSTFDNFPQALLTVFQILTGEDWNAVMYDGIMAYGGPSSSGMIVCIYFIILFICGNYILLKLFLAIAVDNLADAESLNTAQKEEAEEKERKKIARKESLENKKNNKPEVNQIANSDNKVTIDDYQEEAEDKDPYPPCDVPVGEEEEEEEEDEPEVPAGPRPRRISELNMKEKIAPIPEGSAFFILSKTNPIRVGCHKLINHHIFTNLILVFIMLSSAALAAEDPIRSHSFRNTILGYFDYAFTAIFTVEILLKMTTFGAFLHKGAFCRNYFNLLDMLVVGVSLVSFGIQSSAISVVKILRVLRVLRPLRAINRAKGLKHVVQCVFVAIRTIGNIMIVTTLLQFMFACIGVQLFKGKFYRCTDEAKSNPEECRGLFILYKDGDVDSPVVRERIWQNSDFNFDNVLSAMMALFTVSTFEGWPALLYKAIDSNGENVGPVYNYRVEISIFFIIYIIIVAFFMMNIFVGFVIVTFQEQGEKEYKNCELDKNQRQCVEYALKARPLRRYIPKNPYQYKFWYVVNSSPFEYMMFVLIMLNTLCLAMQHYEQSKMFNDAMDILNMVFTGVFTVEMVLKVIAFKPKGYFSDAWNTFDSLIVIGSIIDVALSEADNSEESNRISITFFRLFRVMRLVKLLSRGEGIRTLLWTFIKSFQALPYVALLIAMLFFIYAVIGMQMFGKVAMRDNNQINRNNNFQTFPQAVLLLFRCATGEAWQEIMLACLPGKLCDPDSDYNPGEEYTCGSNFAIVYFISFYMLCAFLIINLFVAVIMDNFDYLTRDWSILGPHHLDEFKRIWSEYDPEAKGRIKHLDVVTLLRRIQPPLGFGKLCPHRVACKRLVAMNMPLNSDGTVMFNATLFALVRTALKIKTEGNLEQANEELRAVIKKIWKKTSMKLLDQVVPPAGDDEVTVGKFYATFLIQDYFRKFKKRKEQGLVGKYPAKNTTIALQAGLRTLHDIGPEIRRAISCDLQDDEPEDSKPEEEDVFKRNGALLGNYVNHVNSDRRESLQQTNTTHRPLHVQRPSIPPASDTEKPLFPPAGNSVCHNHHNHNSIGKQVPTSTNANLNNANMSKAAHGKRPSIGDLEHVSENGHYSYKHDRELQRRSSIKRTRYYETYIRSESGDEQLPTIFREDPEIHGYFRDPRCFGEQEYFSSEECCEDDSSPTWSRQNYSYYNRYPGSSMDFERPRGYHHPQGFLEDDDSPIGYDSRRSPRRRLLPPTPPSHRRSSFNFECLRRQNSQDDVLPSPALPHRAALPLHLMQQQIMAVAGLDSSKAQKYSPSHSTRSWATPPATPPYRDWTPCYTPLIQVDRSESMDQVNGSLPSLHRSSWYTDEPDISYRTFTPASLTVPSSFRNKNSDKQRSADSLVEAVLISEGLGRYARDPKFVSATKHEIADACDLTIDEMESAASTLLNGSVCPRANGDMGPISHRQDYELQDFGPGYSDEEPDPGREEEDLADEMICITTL

Key:
[1] = target: Leucine-rich repeat kinase 2, wild type, fused to GFP (UniProt Q5S007); experiment: co-IP; lysates of HEK-293 cells transiently transfected with GFP-fused LRRK2 (WT or G2019S) and channel subunits; immunoprecipitation with anti-GFP antibodies (2.5 ug, overnight at 4 °C); lysis buffer 50 mM Tris-HCl pH 8.0, 150 mM NaCl, 1% Triton; Western blot with anti-CaV1.3α1 and anti-CaVβ3; anti-EspC as irrelevant control antibody
[2] = target: Leucine-rich repeat kinase 2 variant G2019S, fused to GFP (UniProt Q5S007); experiment: as above

binding [1] | binding [2] | Substance
no binding | no binding | L-type calcium channel pore-forming subunit CaV1.3α1 (from UniProt P27732 1-2203)
binds | binds | Voltage-gated calcium channel auxiliary subunit CaVβ3 (from UniProt P54287 1-484)
